For at least one compound, name, drawing or mass did not settle the structure.
How the values were obtained:
Type in all cases: cell-based, human
STAT3 = assay: Immunocytochemistry for STAT3 in bone marrow CD138+ cells from multiple myeloma patients; conditions: patient #20, 50 μM, 2 h
Protocol: (§1) The cells were fixed on slides by cytospin centrifugation and immuno-stained for NF-κB or STAT3. Red stain indicates specific staining for NF-κB or STAT3, whereas blue stain indicates the relative position of the nuclei in the corresponding view.
(§2) Red stain indicates the specific staining for NF-κB or STAT3 as indicated, whereas blue stain indicates the relative position of the nuclei in the corresponding view.
Untreated or treated multiple myeloma cells were plated on a poly-L-lysine-coated glass slide by centrifugation using a Cytospin 4 (Thermoshendon, Pittsburg, Pa.), air-dried for 1 h at room temperature, and fixed with cold acetone. After a brief washing in PBS, slides were blocked with 5% normal goat serum for 1 h and then incubated either with rabbit polyclonal anti-human NF-κB p65 antibody (SC-109; dilution, 1:100) or with anti-human STAT3 antibody (SC-482; dilution, 1:100). After overnight incubation, the slides were washed and then incubated with goat anti-rabbit IgG-Alexa 594 (A-11037; dilution, 1:100) for 1 h and counter-stained for nuclei with Hoechst (50 ng/ml) for 5 min. Stained slides were mounted with mounting medium (Sigma Colo.) and analyzed under an epifluorescence microscope (Labophot-2, Nikon, Tokyo, Japan). […]

NF-κB = assay: Immunocytochemistry for NF-κB in bone marrow CD138+ cells from multiple myeloma patients; conditions: patient #20, 50 μM, 2 h
Protocol: as §1, §2
Untreated or treated multiple myeloma cells were plated on a poly-L-lysine-coated glass slide by centrifugation using a Cytospin 4 (Thermoshendon, Pittsburg, Pa.), air-dried for 1 h at room temperature, and fixed with cold acetone. After a brief washing in PBS, slides were blocked with 5% normal goat serum for 1 h and then incubated either with rabbit polyclonal anti-human NF-κB p65 antibody (SC-109; dilution, 1:100) or with anti-human STAT3 antibody (SC-482; dilution, 1:100). After overnight incubation, the slides were washed and then incubated with goat anti-rabbit IgG-Alexa 594 (A-11037; dilution, 1:100) for 1 h and counter-stained for nuclei with Hoechst (50 ng/ml) for 5 min. Stained slides were mounted with mounting medium (Sigma Colo.) and analyzed under an epifluorescence microscope (Labophot-2, Nikon, Tokyo, Japan). Pictures were captured using Photometrics Coolsnap CF color camera (Nikon, Lewisville, Tex.) and MetaMorph version 4.6.5 software (Universal Imaging Corp., Downingtown Pa.).

[1] = test system: CD138+ cells from multiple myeloma patients; assay: Viability of bone marrow CD138+ cells from multiple myeloma patients (MTT or trypan blue); conditions: patient #20, indicated concentrations, 24 h, MTT
Protocol: Briefly, cells (5000/well) were incubated in triplicate in a 96-well plate in the presence or absence of indicated test samples in a final volume of 0.1 ml for 24 h at 37° C. Thereafter, 0.025 ml of MTT solution (5 mg/ml in PBS) was added to each well. After a 2 h incubation at 37 ° C., 0.1 ml of extraction buffer (20% SDS, 50% dimethylformamide) was added. Incubation was continued for overnight at 37 ° C., and then the OD at 590 nm was measured using a 96-well multiscanner autoreader (Dynatech MR 5000), with extraction buffer as blank. Percent cell viability=(OD of the experiment samples/OD of the control)×100.

SMILES: C[C@@H]1C[C@H]2[C@@H]3CCC4=CC(=O)C=C[C@]4(C)[C@@]3(F)[C@@H](O)C[C@]2(C)[C@@]1(O)C(=O)CO [dexamethasone]
- constitutive STAT3 activation (nuclear localization) (STAT3; listed as Dexamthasone): less effective than curcumin
- constitutive STAT3 activation (nuclear localization) (STAT3; listed as dexamthasone): downregulated
- constitutive NF-κB activation (nuclear localization) (NF-κB): partially suppressed NF-κB activation
- constitutive NF-κB activation (nuclear localization) (NF-κB; listed as Dexamthasone): less effective than curcumin
- constitutive NF-κB activation (nuclear localization) (NF-κB; listed as dexamthasone): downregulated
- cell survival [1]: decreased the survival of cells
- cell survival ([1]; listed as Dexamethasone): minimally cytotoxic
- cell survival ([1]; listed as Dexamthasone): much less effective than curcumin

Source: US7196105B2, “Treatment of human multiple myeloma by curcumin” (Research Development Foundation, priority 2002, dated 2007)
